Article PMC11044220 (ACS Omega, 2024)

System: HepG2 liver cancer cell line
Conditions: read-out: IC50 (μM) HepG2, MTT assay, mean of three independent replicates ± SE

`CN[C@@H]1C[C@H]2O[C@@](C)([C@@H]1OC)n1c3ccccc3c3c4c(c5c6ccccc6n2c5c31)C(=O)NC4` [STU, staurosporin, reference compound] was tested, and the IC50 was 5.59 ± 0.27 µM.
